In PubChem BioAssay AID256 (DTP/NCI, 2004):
The list shows only some results of the screen, not a fair sample: it gathers tests that were run many times, whatever their T/C, doses with no T/C, and many T/C values between a quarter and a half above the control. Other doses and runs of a compound stand elsewhere. T/C: endpoint of the treated group in % of that of the vehicle group. Some entries give survivors of the animals treated and no T/C: the source files T/C as zero there, which appears to mark a toxic dose or a test without result, not a measured value. Some survivor counts are full or nearly so, which does not show that the dose was tolerated: survival well below the control is almost never listed, so the zero probably covers shortened survival too. Counts of survivors are from the toxicity check (mostly the fifth day) where no day follows; animals may have died later. Schedules are NCI's codes, taken here to give the interval after Q, in days (D) or hours (H), and the number of doses after X. Where survival is the endpoint, this PubChem deposit counts one and a half times the control or more as active, and values a quarter to a half above the control carry no call in these data; other NCI protocols may use other cut-offs. Some T/C values are followed by the survivors on the day toxicity was checked, most often the fifth; where none is given, no animal had died by that day. Some doses were run more than once; the values are given in rising order.

Test system: CD2F1 mice, L1210 leukemia ip, survival T/C
Assay: NCI In Vivo Anticancer Drug Screen. Data for tumor model L1210 Leukemia (intraperitoneal) in CD2F1 (CDF1) mice
Conditions: higher T/C = longer survival
Summary of the method: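 Read-out first: treated-group measurement over vehicle-control measurement, expressed as a ratio. Animals bore a transplanted tumor line and were dosed with compound or vehicle.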

[1] = T/C endpoint: mean survival time, dose: 400.0 mg/kg/injection, schedule: Q04DX003 (ip), vehicle: saline with Tween-80

Structure (SMILES): CC(=O)NC(C=O)CC(C=O)CO (stereo unspecified)
- survivor count (T/C endpoint: mean survival time, dose: 300.0 mg/kg/injection, schedule: Q04DX003 (ip), vehicle: saline): 3 of 6

Structure (SMILES): CCC(CC)C(O)CC(O)CC(C)C (stereo unspecified)
- survivor count (T/C endpoint: mean survival time, dose: 200.0 mg/kg/injection, schedule: Q04DX003 (ip), vehicle: other): 6 of 6

Structure (SMILES): CN(C)CCCN(C)CCCN(C)C
- survivor count (T/C endpoint: mean survival time, dose: 300.0 mg/kg/injection, schedule: Q01DX001 (ip), vehicle: saline): 2 of 6

Structure (SMILES): CC(C)c1oc(=O)cc2c1C(O)C1OC(=O)C3(C)C(O)C4OC4C2(C)C13 (stereo unspecified) (tested in a mixture with another compound)
- survivor count (T/C endpoint: mean survival time, dose: 200.0 mg/kg/injection, schedule: Q04DX002 (ip), vehicle: saline with Tween-80): 0 of 3
- survivor count (T/C endpoint: mean survival time, dose: 400.0 mg/kg/injection, schedule: Q04DX002 (ip), vehicle: saline with Tween-80): 0 of 3

Structure (SMILES): Cc1ccccc1S(=O)(=O)F
- survivor count (T/C endpoint: mean survival time, dose: 200.0 mg/kg/injection, schedule: Q01DX009 (ip), vehicle: saline with Tween-80): 0 of 6
- survivor count [1]: 0 of 6

Structure (SMILES): CC1(C)N=C(N)N=C(N)N1c1ccc(CCCCc2cccc(S(=O)(=O)F)c2)c(Cl)c1
- survivor count (T/C endpoint: mean survival time, dose: 40.0 mg/kg/injection, schedule: Q01DX009 (ip), vehicle: saline with Tween-80): 3 of 6
- survivor count (T/C endpoint: mean survival time, dose: 100.0 mg/kg/injection, schedule: Q04DX003 (ip), vehicle: saline with Tween-80): 0 of 6
- survivor count (T/C endpoint: mean survival time, dose: 200.0 mg/kg/injection, schedule: Q04DX003 (ip), vehicle: saline with Tween-80): 0 of 6
- survivor count [1]: 0 of 6

Structure (SMILES): OC1(c2ccccc2)c2cscc2C(O)(c2ccccc2)c2c(Cl)sc(Cl)c21 (stereo unspecified)
- survivor count (T/C endpoint: mean survival time, dose: 50.0 mg/kg/injection, schedule: Q01DX001 (ip), vehicle: saline with Tween-80): 3 of 3
- survivor count (T/C endpoint: mean survival time, dose: 100.0 mg/kg/injection, schedule: Q01DX001 (ip), vehicle: saline with Tween-80): 3 of 3

Structure (SMILES): COC1C(O)CC(=O)OC(C)C/C=C/C=C/C(OC2CCC(N(C)C)C(C)O2)C(C)CC(CC=O)C1OC1OC(C)C(OC2CC(C)(O)C(O)C(C)O2)C(N(C)C)C1O (stereo unspecified)
- survivor count (T/C endpoint: mean survival time, dose: 800.0 mg/kg/injection, schedule: Q01DX001 (ip), vehicle: saline): 0 of 6

Structure (SMILES): CCN=C=NCCCN(C)C
- survivor count (T/C endpoint: mean survival time, dose: 50.0 mg/kg/injection, schedule: Q01DX009 (ip), vehicle: saline): 4 of 6
- survivor count (T/C endpoint: mean survival time, dose: 100.0 mg/kg/injection, schedule: Q01DX009 (ip), vehicle: saline): 0 of 6
- survivor count (T/C endpoint: mean survival time, dose: 200.0 mg/kg/injection, schedule: Q01DX009 (ip), vehicle: saline): 0 of 6

Structure (SMILES): CC(=O)OC1(C)CC(C)C(=O)C(C(O)CC2CC(=O)NC(=O)C2)C1 (stereo unspecified)
- T/C (T/C endpoint: mean survival time, dose: 0.13 mg/kg/injection, schedule: Q01DX009 (ip), vehicle: saline): 126 % of control [5 of 6 alive]
- T/C (T/C endpoint: mean survival time, dose: 0.25 mg/kg/injection, schedule: Q01DX009 (ip), vehicle: saline): 129 and 131 % of control
- T/C (T/C endpoint: mean survival time, dose: 0.5 mg/kg/injection, schedule: Q01DX009 (ip), vehicle: saline): 131 and 133 % of control [5 of 6 alive]

Structure (SMILES): O=C(CN1CC1)NCCCCCCCNC(=O)CN1CC1
- T/C (T/C endpoint: mean survival time, dose: 9.7 mg/kg/injection, schedule: Q01DX001 (ip), vehicle: carboxymethylcellulose (CMC)): 136 % of control
- T/C (T/C endpoint: mean survival time, dose: 22.0 mg/kg/injection, schedule: Q01DX001 (ip), vehicle: carboxymethylcellulose (CMC)): 135 % of control
- T/C (T/C endpoint: mean survival time, dose: 33.0 mg/kg/injection, schedule: Q01DX001 (ip), vehicle: carboxymethylcellulose (CMC)): 139 % of control
- T/C (T/C endpoint: mean survival time, dose: 75.0 mg/kg/injection, schedule: Q01DX001 (ip), vehicle: carboxymethylcellulose (CMC)): 146 % of control
- survivor count (T/C endpoint: mean survival time, dose: 112.0 mg/kg/injection, schedule: Q01DX001 (ip), vehicle: carboxymethylcellulose (CMC)): 1 of 6

Structure (SMILES): Cc1ccc2scc3c4ccccc4nc-3c2c1
- survivor count (T/C endpoint: mean survival time, dose: 200.0 mg/kg/injection, schedule: Q04DX003 (ip), vehicle: acetone): 1 of 6
- survivor count (T/C endpoint: mean survival time, dose: 400.0 mg/kg/injection, schedule: Q04DX003 (ip), vehicle: acetone): 0 of 6

Structure (SMILES): O=c1[nH]c2ccccc2nc1C(Cl)Cl
- survivor count (T/C endpoint: mean survival time, dose: 200.0 mg/kg/injection, schedule: Q01DX009 (ip), vehicle: Klucel (hydroxypropylcellulose) (HPC)): 2 of 6
- survivor count (T/C endpoint: mean survival time, dose: 400.0 mg/kg/injection, schedule: Q04DX003 (ip), vehicle: Klucel (hydroxypropylcellulose) (HPC)): 1 of 6
- survivor count (T/C endpoint: median survival time, dose: 400.0 mg/kg/injection, schedule: Q04DX003 (ip), vehicle: Klucel (hydroxypropylcellulose) (HPC)): 2 of 6

Structure (SMILES): CC1CCC2(C)CCC3(C)C4=CCC5C(C)(C)C(O)CCC5(C)C4CCC3(C)C2C1C (stereo unspecified)
- survivor count (T/C endpoint: mean survival time, dose: 100.0 mg/kg/injection, schedule: Q04DX003 (ip), vehicle: saline): 6 of 6
